Laboratory results published in PMC3347520.

Molecular target: HFV integrase (HFV IN) (Human foamy virus) (UniProt P14350)
Assay: fluorescence polarization
Conditions: 7.5 mM Mg2+, 4 nM DNA, 100 nM IN, kinetics; recombinant protein; label: fluorescein on 5' of U5B

ATACAAAATTCCATGACAAT (double strand) [U5-HFV duplex, fluorescein]
binding result: binds

The exact form of at least one protein or probe is not confirmed. At least one verdict rests on a figure or table, not on a statement of the authors.
